Experimental data reported in patent US20200277376A1 (SUZHOU STAINWEI BIOTECH, published 2020).
No constants are given. Whether binding was seen depends on the method and setting. Binding calls can cover weak binding; strength is not graded here.

Assays:
[1] = target: monkey PD-1 (monkey (Macaca fascicularis)); assay: immunohistochemistry on monkey tissue sections (figure legend)
[2] = target: monkey PD-1 (monkey (Macaca fascicularis)); assay: immunohistochemistry on paraffin sections of monkey spleen and lympho-node
[3] = target: monkey PD-1 (monkey (Macaca fascicularis)); assay: immunohistochemistry on monkey tissues (example 3)

Measured: binding

B1: murine monoclonal antibody mAB21 (antibody, V domains shown)
VH: EVQLVESGGDFVKPGGSLKLSCAASGFTFSRYDMSWVRQTPDKRLEWVATISGGGRYTYYPDSVKGRFTISRDNAKNTLYLQMSSLKSEDTAIYFCTSPYGNYGMDYWGQGTSVTVSS
VL: DIVMTQSHKFMSTSVGDRVSITCKASQDAGSAVAWYQQKPGQSPKLLIYWASTRHTGVPGRFTGSGSGTDFTLTISNVQSEDLSDYFCQQYSSYPWTFGGGTKLEIK
binds: [1] | [2] | [3]
